Data taken from ChEMBL document CHEMBL3988442, “University of Dundee, Small-Polar-MMV Screening Library” (2021).

Mtb cholesterol medium: 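Growth of Mycobacterium tuberculosis over 4 days (cholesterol / DPPC medium with tyloxapol); the read-out is not stated. Concentration: 50 µM. Direction is inferred from retests: higher values go with more growth inhibition. About 69,000 compounds were tested under these conditions; 0.54% (about 370) showed 50% or more at least once.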
Mtb glucose medium: 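Phenotypic screen: M. tuberculosis growth, glucose 7H9 medium, 3 days; the read-out is not stated. Concentration: 50 µM. Higher reads as more growth inhibition (inferred: compounds with an IC50 in retests scored well above the rest). About 69,000 compounds were tested under these conditions; 1.1% (about 760) showed 50% or more at least once.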

Results are given as percent effect. The controls that fix the scale are not given in the record; negative values are as filed. The compounds are a random part of those screened. Two or more numbers in one place are separate tests of the same structure; such repeats can differ widely.

structure | Mtb cholesterol medium | Mtb glucose medium
COc1cccc(C(C(=O)O)N2CCCN(C3CCCC3)CC2)c1OC (centres unmarked) | -39.8 | -43.33
Cn1cc(-c2cnc(N3CCOCC3)nc2)cc1C(=O)N1CCCC1 | -13.67 | -2.451
CC(=O)N(C)Cc1ccccc1NC(=O)c1cnn(C)c1C | -13.49 | -7.4 & -0.8051
NC(=O)CC1CCN(C(=O)NCCc2ccc(Cl)s2)CC1 | 0.274 | 0.2764
N#Cc1cccnc1NCCC1CCN(CC(F)(F)F)CC1 | 13.18 | 0.6016 & 11.06
Cc1ccccc1C(NC(=O)NCC1(O)CCC1)C1CC1 (centres unmarked) | -14.61 | -5.018
O=C(CNc1cc(Br)ccc1Br)NC1CCS(=O)(=O)C1 (centres unmarked) | -11.64 | -1.979 & 6.9
COc1cc(-c2cc(N)ncn2)cc(OC)c1OC | -7.579 | 18.48
Cc1ccc([C@@H]2CN(C(=O)c3csc(C)n3)C[C@H]2NC(=O)C2CC2)cc1 | 3.174 | -13.29
COC1CCN(C(=O)COC(C)=O)CC(=O)N(C)c2ccccc21 (centres unmarked) | -5.824 | 1.65
CC(=O)Nc1ncc(S(=O)(=O)Nc2ccc(C)cc2)s1 | -33.87 | -7.557
Cc1nc(C2CCCN(C(=O)c3ccc(Cl)cn3)C2)no1 (centres unmarked) | 3.185 | 12.2
Cc1cc(C(=O)NCc2ccnc(N3CCN(C)CC3)c2)c(C)s1 | -7.164 | 2.244
Cc1ccc(-c2noc(CCC3CCN(C)CC3)n2)nn1 | -17.22 | -3.488
CCn1ncnc1C(C)Nc1cc(C2CC2)ncn1 (centres unmarked) | -1.786 | -3.681
COc1cc(N2CCC3(CCCN(C(=O)c4cnccn4)C3)C2)ncn1.O=C(O)C(F)(F)F (centres unmarked) | -19.86 | -24.89
Cc1cc(C)n(-c2ccc(NCCNS(=O)(=O)c3ccccc3)nn2)n1 | -8.171 | -1.012
CC(=O)c1cc(CC(=O)NCc2cccc(F)c2F)cs1 | 2.424 | 6.185
Cc1nnc(C(C)NCC2(c3ccc(F)cc3)CCCCC2)o1 (centres unmarked) | -6.716 | -3.478 & 4.873
Cc1cccc(-n2ncc3c2CCCC3NCC(C)(C)CO)c1C (centres unmarked) | -3.876 | 14.96
CCc1ocnc1C(=O)N1CCCC1c1noc(C2CC2)n1 (centres unmarked) | 17.93 | 29.05
CN(Cc1nnc(C2CC2)o1)C1CCN(CCc2cccs2)C1 (centres unmarked) | -8.132 & -0.3467 | 2.681
CN1CCOC(C(=O)N2CCOC3(CCCC3)C2)C1 (centres unmarked) | -4.431 | -26.72
Cc1ccc(N2CCC3(CCN(Cc4nccs4)CC3)CC2)nn1 | 5.199 | 23.03
CCOc1cc(CNCC2CN(C3CC3)CCO2)ccc1OC (centres unmarked) | 6.261 | 10.99
COC(=O)c1ccc(N2CCN(CC(=O)NC(N)=O)C(C)C2)cc1 (centres unmarked) | 1.259 | -25.34
O=C(O)C(F)(F)F.[H][C@@]12CN(Cc3cccc(C)c3)C[C@]1([H])OCCN2c1ccnc(N(C)C)n1 | 30.38 | 5.846
CCC1(CO)CCCN(c2ncccc2C#N)C1 (centres unmarked) | 9.177 | -14.18
O=C(c1ccco1)N1CCC(n2nc(-c3cccs3)ccc2=O)CC1 | -8.04 | 20.63
CC(C)c1cc(C(=O)N[C@H]2CN(C3CCOCC3)C[C@@H]2C2CC2)no1 | 0.7227 & -4.182 | -4.373
COc1ccc(C(=O)N2CCC(c3nccn3C(C)C)CC2)cc1OC | -4.926 & -2.158 | -1.858
CCCc1ncc(CN(CCOC)Cc2cccs2)cn1 | 17.77 | 16.85 & 14.29
[H][C@@]12CN(CC3CCCCC3)CC[C@]1([H])N(C(C)=O)C[C@H]2c1ccsc1 | -4.861 | 7.447
CCc1nc(CN2CCCC(NCc3nnc(C4CC4)o3)C2)no1 (centres unmarked) | -35.08 | -27.36
O=C1NCCCCC1SCc1coc(-c2ccc(F)cc2)n1 (centres unmarked) | 1.042 | -17.77
[H][C@]12CCN(C(=O)CCO)C[C@@]1([H])OCCN(C(=O)c1ccco1)C2 | 15.8 & -6.283 | 3.239
CC1CCN(C(CNC(=O)Cn2cccn2)c2cccs2)CC1 (centres unmarked) | 3.867 | 3.666
Cn1cnnc1C1CCCN(c2nc3ccccc3o2)C1 (centres unmarked) | -7.525 | -8.563 & -10.48
Cc1nc(C)n(CC2CCCN2c2ccnc(-c3ccccc3)n2)n1 (centres unmarked) | -8.798 | 13.05
C=C(C)COc1ccccc1C(=O)NCCCc1nnn[nH]1 | -11.37 | -16.51 & -0.1525
CC(C)n1cc(C(=O)NCCc2cn3ccsc3n2)cn1 | 23.34 | 2.111
COc1ccc(CN2CCC(CO)(Cc3ccc(Cl)cc3)CC2)c(O)c1 | -7.84 & -1.131 | 12.33 & 2.971
Cc1nc2n(n1)CC(NCc1ccc(Cl)c3cccnc13)CC2 (centres unmarked) | -19.18 | -17.94
O=C1NCc2ccccc2CC12CCN(Cc1c(F)cccc1Cl)C2 (centres unmarked) | -2.972 | 28.86
CN(Cc1nnnn1C1CC1)c1cccc2ccccc12 | -1.136 | 8.618
NC(=O)C1CCN(C(=O)c2ccn(-c3ccc(F)cc3)n2)C1 (centres unmarked) | -12.62 | 7.269
CS(=O)(=O)Nc1cccc(CNC(=O)c2cccs2)c1 | -31.14 | -16.07
CCOC(=O)N1CCN(c2nc(NCCO)c3ccccc3n2)CC1 | 7.55 & -8.4 | -5.911

The first 5 entries again:

For COc1cccc(C(C(=O)O)N2CCCN(C3CCCC3)CC2)c1OC (centres unmarked) the result was Mtb cholesterol medium: -39.8%; Mtb glucose medium: -43.33%.
For Cn1cc(-c2cnc(N3CCOCC3)nc2)cc1C(=O)N1CCCC1 the result was Mtb cholesterol medium: -13.67%; Mtb glucose medium: -2.451%.
For CC(=O)N(C)Cc1ccccc1NC(=O)c1cnn(C)c1C the result was Mtb cholesterol medium: -13.49%; Mtb glucose medium: -7.4% & -0.8051%.
For NC(=O)CC1CCN(C(=O)NCCc2ccc(Cl)s2)CC1 the result was Mtb cholesterol medium: 0.274%; Mtb glucose medium: 0.2764%.
For N#Cc1cccnc1NCCC1CCN(CC(F)(F)F)CC1 the result was Mtb cholesterol medium: 13.18%; Mtb glucose medium: 0.6016% & 11.06%.